Experimental data taken from publication doi:10.1101/2023.09.07.556688 (bioRxiv, 2023).
These are yes or no findings as the source states them, for the method shown. Some results given as binding are weak or reduced against the parent protein; the word gives no strength.

Experiments:
[1] = target: atP5CS2-F80A mutant (Arabidopsis thaliana) (UniProt P54888); test: negative-stain EM
[2] = target: truncated atP5CS2 protein consisting of residues 1-290 (atP5CS2-GK) (Arabidopsis thaliana) (UniProt P54888); test: negative-stain EM

| binding [1] | binding [2] | Binder |
| --- | --- | --- |
| no binding |  | atP5CS2-F80A mutant (enzyme, UniProt P54888 1-726) MTEIDRSRAFAKDVKRIVVKVGTAVVTGKGGRLALGRLGAICEQLAELNSDGFEVILVSSGAVGLGRQRLRYRQLVNSSAADLQKPQMELDGKACAGVGQSSLMAYYETMFDQLDVTVAQMLVTDSSFRDKDFRKQLSETVKAMLRMRVIPVFNENDAISTRRAPYKDSTGIFWDNDSLAALLSLELKADLLILLSDVEGLYTGPPSDSTSKLIHTFIKEKHQDEITFGEKSKLGRGGMTAKVKAAVNAAYGGVPVIITSGYAAENISKVLRGLRVGTLFHQDAHLWAPVVDTTSRDMAVAARESSRKLQALSSEDRKQILHDIANALEVNEKTIKAENDLDVAAAQEAGYEESLVARLVMKPGKISSLAASVRQLAEMEDPIGRVLKKTQVADDLILEKTSSPIGVLLIVFESRPDALVQIASLAIRSGNGLLLKGGKEARRSNAILHKVITDAIPETVGGKLIGLVTSREEIPDLLKLDDVIDLVIPRGSNKLVSQIKNSTKIPVLGHADGICHVYVDKSGKLDMAKRIVSDAKLDYPAACNAMETLLVHKDLEQNGFLDDLIYVLQTKGVTLYGGPRASAKLNIPETKSFHHEYSSKACTVEIVEDVYGAIDHIHQHGSAHTDCIVTEDSEVAEIFLRQVDSAAVFHNASTRFSDGFRFGLGAEVGISTSRIHARGPVGVEGLLTTRWIMRGKGQVVDGDNGIVYTHKDLPVLQRTEAVENGI |
|  | binds weakly | truncated atP5CS2 protein consisting of residues 1-290 (atP5CS2-GK) (domain or fragment, Arabidopsis thaliana, UniProt P54888 1-290, looked up) MTEIDRSRAFAKDVKRIVVKVGTAVVTGKGGRLALGRLGAICEQLAELNSDGFEVILVSSGAVGLGRQRLRYRQLVNSSFADLQKPQMELDGKACAGVGQSSLMAYYETMFDQLDVTVAQMLVTDSSFRDKDFRKQLSETVKAMLRMRVIPVFNENDAISTRRAPYKDSTGIFWDNDSLAALLSLELKADLLILLSDVEGLYTGPPSDSTSKLIHTFIKEKHQDEITFGEKSKLGRGGMTAKVKAAVNAAYGGVPVIITSGYAAENISKVLRGLRVGTLFHQDAHLWAPV |
